At least one compound was matched to its structure with a doubt left.
Tested on: stage 1 NOS1::GFP enteric ganglioids
Assay: NO neuron induction in stage 1 enteric ganglioids (flow cytometry)
Type: cell-based, human
Procedure: List of antibodies and working dilutions is not shown.
To identify compounds that induce NO neuron differentiation, enteric crestospheres were treated with 1694 compounds in the Selleck inhibitor Library™ and 12 hit compounds that increased the proportion of NOS1^+ neurons by at least eight folds were identified (FIG. 7A and FIG. 8A-B). […] After clustering the predicted protein targets, common patterns emerged for a subset of compounds.
To determine the mechanism by which PP121 induced NO neuron enrichment in ganglioids, a combination of pharmacological and genetic approaches was used. […] The crestosphere snRNA-seq analysis confirmed the expression of PDGFRA, PDGFRB, ERBB2, and ERBB3 while the mRNA for VEGFRs were not detectable (FIG. 7L). The induction efficiency of NO neurons was evaluated in response to PDGF (PDGFR agonist), sunitinib (PDGFR and VEGFR antagonist), NRG1 (ERBBs agonist), and sapitinib (ERBBs antagonist) (FIG. 7M). […] To genetically confirm the role of PDGFR signaling in NO neuron induction, CRISPR-Cas9 was used to knock-out PDGFRA and PDGFRB in the enteric crestospheres and the percentage of NO neurons in stage 1 ganglioids was analyzed. NO neurons were […] in both PDGFRA and PDGFRB knock-out cultures further confirming the PP121 mechanism of action (FIG. 7O-P).

## CCN(CC)CCNC(=O)c1c(C)[nH]c(/C=C2\C(=O)Nc3ccc(F)cc32)c1C [sunitinib]
  NO neuron induction / NO neuron proportions in response to RTK ligands: higher
